PubChem BioAssay AID651640 (Broad Institute, 2012)
Screen size: about 350,000 compounds; about 6,000 (1.7%) were called active. Inconclusive means that the source gave no clear call. Such entries were picked first, then a sample of the others. No stated cut-off is given here; in the data, active means CPE inhibition above about 20% (passing the limit was not always enough); inconclusive means no clear call, values can overlap the other calls; tested in BHK-21 cells.

Test: protection of cells from dengue 2 killing – plate reader, single concentration, primary screen (AID 651640);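 further: 0% = median of neutral control wells and 100% = median of positive control wells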
Conditions: DENV2-infected cells, cytopathic effect rescue, at 9.99 µM, hits give high values

Row | SMILES | CPE inhibition
1 | COc1cccc(C(NC(C)=O)c2nc(/C=C/c3ccccc3)cs2)c1 (centres undefined) | active: 29.7%
2 | CCOC(=O)[C@@H]1[C@H]2COc3ccccc3[C@@H]2N2C(=O)N(c3ccc(C)cc3)C(=O)[C@@]12C | inconclusive: 44.9%
3 | CCCCCn1c(C)c(CC(=O)Nc2ccc(Oc3cccnc3)c(C)c2)c2ccccc21 | inconclusive: 26.4%
4 | CCOC(=O)C1(CCOc2ccccc2)CCN(CCCn2cccn2)CC1 | inactive: -4.23%
5 | c1ccc(Cn2nnc3c(NCC4CC4)ncnc32)cc1 | inconclusive: 68.1%
6 | CCOC(=O)/C(C#N)=C/c1cn(CCOc2ccc(OC)cc2)c2ccccc12 | inconclusive: 25.7%
7 | COc1cccc(CNC(=O)c2cc(S(=O)(=O)N3CCCC3)cn2C)c1 | inconclusive: 23.9%
8 | COc1cccc(OC)c1OCCCNC1CCCC1 | inconclusive: 34.2%
9 | CCCC(=O)Nc1ccc2c(c1)C(=O)N(C)C[C@@H](OC)[C@@H](C)CN(C)[C@@H](C)CO2 | inactive: 2.03%
10 | CCC(=O)Nc1ccc2c(c1)C(=O)N(C)C[C@@H](OC)[C@H](C)CN(Cc1ccc(-c3ccccn3)cc1)[C@H](C)CO2 | inactive: -0.958%
11 | CC(C)CC#Cc1ccc2c(c1)O[C@@H](CN(C)Cc1ccc(F)cc1)[C@@H](C)CN([C@H](C)CO)S2(=O)=O | active: 45.4%
12 | CCC1Oc2ccccc2N(CC(=O)N2CC(C)CC(C)C2)C1=O (centres undefined) | inconclusive: 32%
13 | COc1ccccc1C(=O)COC(=O)C1CCN(S(=O)(=O)c2ccc(C)c(C)c2)CC1 | inconclusive: 22.1%
14 | C[C@@H]1CCCCO[C@H](CN(C)S(=O)(=O)c2ccc(F)cc2)[C@@H](C)CN([C@H](C)CO)C(=O)c2cc(NS(=O)(=O)c3ccc(Cl)cc3)ccc2O1 | inconclusive: 24.3%
15 | C[C@@H]1CN([C@@H](C)CO)C(=O)c2ccccc2-c2ccccc2CO[C@H]1CN(C)C(=O)NC1CCCCC1 | inconclusive: 45.8%
16 | C[C@H](CO)N1C[C@H](C)[C@H](CN(C)S(=O)(=O)c2ccc(F)cc2)Oc2c(NC(=O)C3CC3)cccc2C1=O | inactive: -5.94%
17 | O=C(Nc1ccc(F)cc1)N[C@H]1CC[C@@H](CCn2cc(-c3ccc(F)cc3)nn2)O[C@@H]1CO | inactive: -7.62%
18 | C[C@@H]1CN([C@H](C)CO)C(=O)c2cccc(NC(=O)Nc3cccc4ccccc34)c2O[C@@H]1CN(C)Cc1ccc(C(=O)O)cc1 | inconclusive: 20.5%
19 | CCOC(=O)Cn1c(=O)oc2cc(S(=O)(=O)Nc3ccc(N(CC)CC)cc3C)ccc21 | inconclusive: 20.6%
20 | Cc1cc(C[n+]2cc(Br)ccc2N)c2ncccc2c1 | active: 35.3%
21 | C[C@H]1CN([C@@H](C)CO)C(=O)Cc2cc(NC(=O)Nc3ccc4c(c3)OCO4)ccc2O[C@H]1CN(C)S(=O)(=O)c1cccs1 | inactive: 3.67%
22 | COc1ccc(CN2CCC(=O)N([C@H](CO)c3ccccc3)CC2)cc1 | active: 26.1%
23 | CC(=O)N1[C@@H](CO)[C@@H](c2ccc(C3=CCCC3)cc2)C12CN(C(=O)NC(C)C)C2 | active: 40.6%
24 | COc1ccc2c3c([nH]c2c1)[C@H](CO)NCC31CCN(C(=O)C2CCC2)CC1 | inactive: 2.84%
25 | CCC(=O)N1C[C@H](C)[C@@H](OC)CN(C)C(=O)c2cc(NC(=O)Nc3ccc(Cl)cc3)ccc2OC[C@H]1C | inconclusive: 28.1%

Row | SMILES | CPE inhibition
26 | CC(C)NC(=O)Nc1ccc2c(c1)CC(=O)N([C@@H](C)CO)C[C@H](C)[C@H](CN(C)C(=O)NC(C)C)O2 | inconclusive: 38.4%
27 | CCCCNC(=O)C1(C)CCCCN1CC(=O)c1ccc(OC)cc1 (centres undefined) | inconclusive: 38.2%
28 | S=C(NCCCCN(Cc1ccc(Cl)cc1)c1ccc(Br)cn1)NCCCc1cnc[nH]1 | inconclusive: 30.6%
29 | COc1ccc(CCNC(=O)CN(Cc2ccc(Cl)cc2)S(C)(=O)=O)cc1OC | inconclusive: 25.7%
30 | CCCCN(C)CCNC(=O)c1nn(-c2ccc(OC)cc2)c(=O)c2c1c1ccccc1n2C | inactive: -0.776%
31 | O=c1[nH]c(N2CCN(Cc3ccc4c(c3)OCO4)CC2)nc2c1CCCC2 | inconclusive: 34.4%
32 | NC(N)=NCCCC(NC(=O)c1ccccc1)C(=O)Nc1ccc2ccccc2c1 (centres undefined) | inconclusive: 43.3%
33 | CCN1[C@@H]2c3ccc(-c4ccccc4)c(=O)n3C[C@@H]2[C@@H](CO)[C@@H]1C(=O)NCC(F)(F)F | inactive: -6.13%
34 | Cc1cn([C@H]2C[C@H](O)[C@@H](CNC(=O)CNC(=O)CN)O2)c(=O)[nH]c1=O | inconclusive: 37.7%
35 | O=C(O)/C=C/c1ccc(O)cc1 | inconclusive: 48.1%
36 | CCOc1ccc(-c2cc(CCCC(=O)N3CCN(c4ccc(OC)cc4)CC3)no2)cc1 | inconclusive: 70.9%
37 | COc1ccc(S(=O)(=O)Nc2ccc3c(c2)C(=O)N([C@@H](C)CO)C[C@@H](C)[C@@H](CN(C)S(=O)(=O)c2ccc(OC)cc2)O3)cc1 | inconclusive: 62.7%
38 | CCOc1ccc(Cl)cc1-c1cc(C(=O)NCc2ccccc2OC)[nH]n1 | inconclusive: 70.6%
39 | COc1ccc(Nc2ccc(S(=O)(=O)N3CCCCC3)cc2[N+](=O)[O-])cc1Cl | active: 40.7%
40 | Cn1c(Cc2ccccc2)nnc1SCc1cc(=O)n2ccsc2n1 | inactive: -3.82%
41 | Cc1ccc(NCc2cccc(B(O)O)c2)cc1 | inactive: -5.55%
42 | COc1cccc(C(=O)Nc2ccncc2)c1OC | inactive: 9.24%
43 | CCNC(=O)[C@@H]1[C@@H](CO)[C@@H]2Cn3c(ccc(-c4ccccc4F)c3=O)[C@H]1N2Cc1cccnc1 | inactive: 11.6%
44 | Cc1ccc(NC(=O)CSCC(=O)NNC(=O)c2nn(C)c(=O)c3ccccc23)cc1 | inconclusive: 36.8%
45 | C[C@H](CO)N1C[C@H](C)[C@@H](CN(C)Cc2ccc(C(F)(F)F)cc2)OCCCC[C@H](C)Oc2ccc(NC(=O)CCC(F)(F)F)cc2C1=O | inactive: 6.17%
46 | CC(=O)N1CC[C@@H]2[C@@H](CO)Nc3ccc(-c4cccc(F)c4)cc3[C@@H]21 | active: 28.6%
47 | O=C(C[C@H]1CC[C@@H]2[C@H](COC[C@H](O)CN2C(=O)c2ccccc2)O1)N1CCc2ccccc2C1 | active: 28.2%
48 | COc1ccc(S(=O)(=O)N2CCCC(C(=O)NCc3cccnc3)C2)cc1 (centres undefined) | inconclusive: 21.7%
49 | CC(=O)Nc1nnc(SCC(=O)N2CCCc3ccccc32)s1 | inconclusive: 30.5%
50 | C[C@H](CO)N1C[C@H](C)[C@H](CN(C)Cc2ccc(Cl)c(Cl)c2)Oc2c(NC(=O)NC3CCCCC3)cccc2C1=O | inactive: -4.97%

Row | SMILES | CPE inhibition
51 | COCCn1c(SCC(=O)Nc2ccc(OC)c(S(N)(=O)=O)c2)nc2ccccc21 | inactive: 6.93%
52 | Cc1ccc(C)c(N2CCN(C(=O)CCS(=O)(=O)c3ccc4c(c3)CCN4C(=O)C3CC3)CC2)c1 | inconclusive: 60.6%
53 | C[C@H]1CN([C@@H](C)CO)C(=O)c2cc(C#CCN(C)C)cnc2O[C@H]1CN(C)C(=O)c1cnccn1 | inactive: 1.12%
54 | CCCS(=O)(=O)N1CCN(Cc2c[nH]c3ccccc23)CC1 | inconclusive: 21.8%
55 | C[C@@H]1CN([C@H](C)CO)C(=O)Cc2cc(NC(=O)Cc3cn(C)c4ccccc34)ccc2O[C@H]1CN(C)S(C)(=O)=O | inconclusive: 59.5%
56 | CC(=O)c1ccc(OCc2cc(C(=O)N3CCN4CCCC4C3)no2)cc1 (centres undefined) | inconclusive: 23.3%
57 | COc1ccc(S(=O)(=O)Nc2ccc3c(c2)CC(=O)N([C@H](C)CO)C[C@H](C)[C@H](CN(C)S(=O)(=O)c2cccs2)O3)cc1 | inconclusive: 41.7%
58 | Cc1ccc2c(c1)NC(=O)C(CC(=O)NC1CCCCC1C)O2 (centres undefined) | inconclusive: 37.9%
59 | CO[C@H]1CN(C)C(=O)c2cc(NC(=O)C3CC3)ccc2OC[C@H](C)N(CC2CCCC2)C[C@@H]1C | inconclusive: 24.8%
60 | CC(C)CCN1CCN(Cc2cccs2)CC1CCO (centres undefined) | inconclusive: 28%
61 | O=C(Nc1ccccc1)Nc1ccccc1 | inconclusive: 59.6%
62 | COc1ccc(NC(=O)c2sc3nc(C)nc(N4CCN(c5ccccn5)CC4)c3c2C)c(OC)c1 | inconclusive: 29%
63 | COc1ccc(C(CNC(=O)c2cc3ccccc3o2)N2CCCC2)cc1 (centres undefined) | inconclusive: 26%
64 | Cn1cnc(S(=O)(=O)N2C[C@@H](O)COC[C@H]3O[C@H](CC(=O)NC4CCCC4)CC[C@@H]32)c1 | inactive: 6.23%
65 | C[C@@H]1CN([C@@H](C)CO)C(=O)c2cc(NC(=O)Nc3ccccc3)ccc2O[C@@H](C)CCCCO[C@@H]1CN(C)S(=O)(=O)c1ccc(Cl)cc1 | inactive: 3.61%
66 | COC(=O)/C=C(\C)N=Nc1c(O)[nH]c2ccccc12 | inconclusive: 24.3%
67 | Cc1cc(C)cc(CC(=O)N2CCC2(C)C(=O)NS(=O)(=O)c2ccccc2)c1 (centres undefined) | inactive: -4.46%
68 | COc1cccc(/C=C2\SC(=S)N(CCCC(=O)N3CCCCC3)C2=O)c1 | active: 27.5%
69 | Cc1cc(C)cc(NC(=O)C2CC3CCC2C3)c1 (centres undefined) | inconclusive: 21.3%
70 | CCCCCNC(=O)c1[nH]c(C(F)(F)F)nc1-c1ccccc1 | active: 28.1%
71 | COc1ccc(CNC(=O)C2CCN(C(=O)c3ccc(-c4ccccc4)cc3)CC2)cc1 | inactive: 3.21%
72 | C[C@H]1CN([C@@H](C)CO)C(=O)c2cc(C#CC(C)(C)O)cnc2O[C@H]1CN(C)C(=O)C1CCOCC1 | inconclusive: 29.2%
73 | CCCC(=O)Nc1ccc2c(c1)C(=O)N(C)[C@H]1CC[C@@H](CC(=O)NCC3CC3)O[C@@H]1CO2 | inconclusive: 20.1%
74 | C[C@@H]1CCCCO[C@@H](CN(C)C(=O)Nc2ccc(F)cc2)[C@H](C)CN([C@@H](C)CO)C(=O)c2cc(NC(=O)Nc3ccc(F)cc3)ccc2O1 | inconclusive: 29.5%

21 entries from above, arranged by count of non-hydrogen atoms, rising:
Row | SMILES | CPE inhibition
69 | Cc1cc(C)cc(NC(=O)C2CC3CCC2C3)c1 (centres undefined) | inconclusive: 21.3%
42 | COc1cccc(C(=O)Nc2ccncc2)c1OC | inactive: 9.24%
8 | COc1cccc(OC)c1OCCCNC1CCCC1 | inconclusive: 34.2%
5 | c1ccc(Cn2nnc3c(NCC4CC4)ncnc32)cc1 | inconclusive: 68.1%
54 | CCCS(=O)(=O)N1CCN(Cc2c[nH]c3ccccc23)CC1 | inconclusive: 21.8%
70 | CCCCCNC(=O)c1[nH]c(C(F)(F)F)nc1-c1ccccc1 | active: 28.1%
40 | Cn1c(Cc2ccccc2)nnc1SCc1cc(=O)n2ccsc2n1 | inactive: -3.82%
7 | COc1cccc(CNC(=O)c2cc(S(=O)(=O)N3CCCC3)cn2C)c1 | inconclusive: 23.9%
31 | O=c1[nH]c(N2CCN(Cc3ccc4c(c3)OCO4)CC2)nc2c1CCCC2 | inconclusive: 34.4%
4 | CCOC(=O)C1(CCOc2ccccc2)CCN(CCCn2cccn2)CC1 | inactive: -4.23%
9 | CCCC(=O)Nc1ccc2c(c1)C(=O)N(C)C[C@@H](OC)[C@@H](C)CN(C)[C@@H](C)CO2 | inactive: 2.03%
51 | COCCn1c(SCC(=O)Nc2ccc(OC)c(S(N)(=O)=O)c2)nc2ccccc21 | inactive: 6.93%
44 | Cc1ccc(NC(=O)CSCC(=O)NNC(=O)c2nn(C)c(=O)c3ccccc23)cc1 | inconclusive: 36.8%
71 | COc1ccc(CNC(=O)C2CCN(C(=O)c3ccc(-c4ccccc4)cc3)CC2)cc1 | inactive: 3.21%
36 | CCOc1ccc(-c2cc(CCCC(=O)N3CCN(c4ccc(OC)cc4)CC3)no2)cc1 | inconclusive: 70.9%
43 | CCNC(=O)[C@@H]1[C@@H](CO)[C@@H]2Cn3c(ccc(-c4ccccc4F)c3=O)[C@H]1N2Cc1cccnc1 | inactive: 11.6%
72 | C[C@H]1CN([C@@H](C)CO)C(=O)c2cc(C#CC(C)(C)O)cnc2O[C@H]1CN(C)C(=O)C1CCOCC1 | inconclusive: 29.2%
62 | COc1ccc(NC(=O)c2sc3nc(C)nc(N4CCN(c5ccccn5)CC4)c3c2C)c(OC)c1 | inconclusive: 29%
25 | CCC(=O)N1C[C@H](C)[C@@H](OC)CN(C)C(=O)c2cc(NC(=O)Nc3ccc(Cl)cc3)ccc2OC[C@H]1C | inconclusive: 28.1%
65 | C[C@@H]1CN([C@@H](C)CO)C(=O)c2cc(NC(=O)Nc3ccccc3)ccc2O[C@@H](C)CCCCO[C@@H]1CN(C)S(=O)(=O)c1ccc(Cl)cc1 | inactive: 3.61%
14 | C[C@@H]1CCCCO[C@H](CN(C)S(=O)(=O)c2ccc(F)cc2)[C@@H](C)CN([C@H](C)CO)C(=O)c2cc(NS(=O)(=O)c3ccc(Cl)cc3)ccc2O1 | inconclusive: 24.3%
